PubChem BioAssay AID743121, NCATS | 2013
Screen: 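Partners whose loss is lethal together with topoisomerase I blockade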 (primary screen). System: MDA-MB-231 cells, a human breast cancer line. Reagent: single siRNA against human genes, 20 nM siRNA (0.8 pmol per well). Time to read-out: 120 h (drug added 48 h after transfection, read 72 h later). Challenge: camptothecin 20 nM (about EC30) for 72 h; vehicle 0.1% DMSO in parallel plates. Measured: 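Cell viability by ATP luminescence (CellTiter-Glo) as % of non-targeting siRNA wells, and the log2 ratio of viability without drug over viability with camptothecin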. Reading the numbers: log2 vehicle/camptothecin viability: higher = stronger sensitisation to camptothecin; viability with camptothecin: higher = more viable cells. Units: viability with camptothecin in % of control. Rule for the call: 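Each gene scored by redundant siRNA activity (RSA) over its individual siRNA ratios; a gene is called active at p < 0.001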.
Shown is a random part of about 26,000 reagents. 167 of them (0.63%) count as active. 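Calls are per gene from RSA p-values that are not deposited; an individual active-marked siRNA can sensitise only weakly.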 The numbers tell different reagents against one gene apart. Not all columns of the deposit are shown.

IL22RA2 (GeneID 116379) #1
- log2 vehicle/camptothecin viability: -0.593
- viability with camptothecin: 82.5
- Outcome: inactive

IL22RA2 (GeneID 116379) #2
- log2 vehicle/camptothecin viability: -0.0185
- viability with camptothecin: 81.8
- Outcome: inactive

IL22RA2 (GeneID 116379) #3
- log2 vehicle/camptothecin viability: 0.0953
- viability with camptothecin: 74.8
- Outcome: inactive

IL22RA2 (GeneID 116379) #4
- log2 vehicle/camptothecin viability: -0.0255
- viability with camptothecin: 97.7
- Outcome: inactive

DOLPP1 (GeneID 57171) #1
- log2 vehicle/camptothecin viability: -0.206
- viability with camptothecin: 96.7
- Outcome: inactive

DOLPP1 (GeneID 57171) #2
- log2 vehicle/camptothecin viability: -0.213
- viability with camptothecin: 34.5
- Outcome: inactive

DOLPP1 (GeneID 57171) #3
- log2 vehicle/camptothecin viability: -0.227
- viability with camptothecin: 88.5
- Outcome: inactive

DOLPP1 (GeneID 57171) #4
- log2 vehicle/camptothecin viability: 0.204
- viability with camptothecin: 28.2
- Outcome: inactive

PNP (GeneID 4860) #1
- log2 vehicle/camptothecin viability: -0.0184
- viability with camptothecin: 82.2
- Outcome: inactive

PNP (GeneID 4860) #2
- log2 vehicle/camptothecin viability: -0.0172
- viability with camptothecin: 86.2
- Outcome: inactive

PNP (GeneID 4860) #3
- log2 vehicle/camptothecin viability: 0.0528
- viability with camptothecin: 106
- Outcome: inactive

PNP (GeneID 4860) #4
- log2 vehicle/camptothecin viability: 0.421
- viability with camptothecin: 62.8
- Outcome: inactive

CDKL2 (GeneID 8999) #1
- log2 vehicle/camptothecin viability: 0.0439
- viability with camptothecin: 77.2
- Outcome: inactive

CDKL2 (GeneID 8999) #2
- log2 vehicle/camptothecin viability: -0.313
- viability with camptothecin: 136
- Outcome: inactive

CDKL2 (GeneID 8999) #3
- log2 vehicle/camptothecin viability: 0.363
- viability with camptothecin: 67.1
- Outcome: inactive

CDKL2 (GeneID 8999) #4
- log2 vehicle/camptothecin viability: -0.0493
- viability with camptothecin: 117
- Outcome: inactive

HAND1 (GeneID 9421) #1
- log2 vehicle/camptothecin viability: -0.174
- viability with camptothecin: 58.6
- Outcome: inactive

HAND1 (GeneID 9421) #2
- log2 vehicle/camptothecin viability: -0.408
- viability with camptothecin: 64.9
- Outcome: inactive

HAND1 (GeneID 9421) #3
- log2 vehicle/camptothecin viability: -0.583
- viability with camptothecin: 84.8
- Outcome: inactive

HAND1 (GeneID 9421) #4
- log2 vehicle/camptothecin viability: -0.0133
- viability with camptothecin: 92.9
- Outcome: inactive

RC3H1 (GeneID 149041) #1
- log2 vehicle/camptothecin viability: -0.475
- viability with camptothecin: 67.8
- Outcome: inactive

RC3H1 (GeneID 149041) #2
- log2 vehicle/camptothecin viability: 0.0381
- viability with camptothecin: 61.3
- Outcome: inactive

RC3H1 (GeneID 149041) #3
- log2 vehicle/camptothecin viability: -0.263
- viability with camptothecin: 136
- Outcome: inactive

RC3H1 (GeneID 149041) #4
- log2 vehicle/camptothecin viability: -0.197
- viability with camptothecin: 94.5
- Outcome: inactive

Part of the list above, set out differently:
{"Target gene": "PNP (GeneID 4860)", "reagent": 3, "log2 vehicle/camptothecin viability": 0.0528, "viability with camptothecin": 106, "Outcome": "inactive"}
{"Target gene": "PNP (GeneID 4860)", "reagent": 4, "log2 vehicle/camptothecin viability": 0.421, "viability with camptothecin": 62.8, "Outcome": "inactive"}
